Experimental data from US20150258107A1, “METHODS AND COMPOSITIONS FOR TREATING DEPRESSION” (DemeRx, Inc., priority 2014, published 2015).
The name of at least one read-out is uncertain.

Key:
[1] = Human pharmacokinetic study, single oral tablet, fasting healthy volunteers (serum levels); assay type: in vivo
Procedure: In double blind studies, fasting healthy volunteers (6 per cohort) were treated once orally with a tablet of noribogaine HCl. In escalating cohorts, the volunteers received 3 mg, 10 mg, 30 mg or 60 mg noribogaine.

[2] = Pharmacokinetics of noribogaine in healthy male volunteers (plasma and urine, LCMSMS); conditions: mean (SD)

In the case of CC[C@H]1CC2C[C@H]3c4[nH]c5ccc(O)cc5c4CCN(C2)C13 [noribogaine], the “time of mean Cmax after administration” value ([1]; single dose of 3 mg) is reported as 1.9 h, the “time of mean Cmax after administration” value ([1]; single dose of 10 mg) is reported as 2.9 h and the “time of mean Cmax after administration” value ([1]; single dose of 30 mg) is reported as 1.75 h. The “time of mean Cmax after administration” value ([1]; single dose of 60 mg) was 1.75 h, the Vd/F ([2]; 3 mg (n = 6)) was 2485.1 (801.5) L and the Vd/F ([2]; 10 mg (n = 6)) was 3085.8 (1197.0) L. For the same molecule, the Vd/F ([2]; 30 mg (n = 6)) was 1850.8 (707.9) L and the Vd/F ([2]; 60 mg (n = 6)) was 1416.8 (670.1) L.
